Data source: PubChem BioAssay AID1259254 (NCATS, 2017)
Test: 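Gene knock-downs that lead to re-replication, shown by excess G2 DNA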 (primary screen). System: human HCT116 colorectal cancer cells. Reagent: single siRNA against human genes. Timing: 3 days. Measurement: 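Nuclei stained with Hoechst and imaged; cell-cycle phase assigned by DNA content; G2 share scaled per plate, non-targeting siRNA 0%, GMNN siRNA 100%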. Reading the numbers: G2 robust z-score and G2 cells, % of GMNN control: higher = more G2 cells, more excess DNA replication; raw share of cells in G2: higher = larger share of cells with G2 DNA content. Active means: 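Active siRNAs have a G2 robust z of 5 or more median absolute deviations over the median, which in these data means about 38% or higher of GMNN control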.
This is one part, drawn at random, of about 59,000 deposited reagents. Over the whole deposit, about 1,550 (2.6%) are marked active. 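G2 share is only a proxy for re-replication; each gene was hit by three separate siRNAs, and active genes were retested.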 Raw values are not corrected between plates. Entries without a mark were called inactive. The numbers tell different reagents against one gene apart. Not stated in the record: the amount of reagent.

target,reagent no.,G2 robust z-score,"G2 cells, % of GMNN control",raw share of cells in G2 (%)
FAM133B,1,-0.0782,2.42,4
FAM133B,2,-0.0293,2.76,4.65
FAM133B,3,0.489,6.41,5.52
STARD5,1,-0.214,1.46,6.04
STARD5,2,-1.12,-4.93,2.41
STARD5,3,1.35,12.5,9.4
TBXAS1,1,0.248,4.71,6.48
TBXAS1,2,-1.01,-4.13,2.77
TBXAS1,3,0.0155,3.08,6.04
ADAMTS17,1,1.81,15.7,12.2
ADAMTS17,2,1.31,12.2,8.48
ADAMTS17,3,-1,-4.07,2.75
PDLIM4,1,-0.157,1.86,5.38
PDLIM4,2,-1.62,-8.41,2.31
PDLIM4,3,-0.472,-0.35,4.58
SLF1,1,-1.2,-5.45,2.29
SLF1,2,-0.372,0.35,3.56
SLF1,3,-0.0318,2.74,3.24
TERF2IP,1,-0.173,1.75,4.47
TERF2IP,2,0.218,4.5,8
TERF2IP,3,-0.587,-1.16,3.81
ADAMTSL2,1,-1.13,-4.97,1.87
ADAMTSL2,2,-1.34,-6.44,3.12
ADAMTSL2,3,1.8,15.6,9.88
STRIP2,1,-0.856,-3.06,3.14
STRIP2,2,-0.628,-1.45,3.77
STRIP2,3,-0.495,-0.513,2.87
SPRR2B,1,1.52,13.6,8.47
SPRR2B,2,3.1,24.8,13
SPRR2B,3,4.57,35.1,17.5
UQCRHP2,1,0.102,3.69,4.6
UQCRHP2,2,-0.268,1.08,3.44
UQCRHP2,3,0.303,5.1,6.2
DEFB136,1,-0.495,-0.518,3.42
DEFB136,2,-0.182,1.69,4.06
DEFB136,3,-0.826,-2.84,2.15
SRCAP,1,0.412,5.87,8.79
SRCAP,2,-0.326,0.672,5.99
SRCAP,3,-0.169,1.78,4.42

14 entries from above, ordered by “raw share of cells in G2 (%)”, highest first:
target,reagent no.,G2 robust z-score,"G2 cells, % of GMNN control",raw share of cells in G2 (%)
ADAMTSL2,3,1.8,15.6,9.88
TERF2IP,2,0.218,4.5,8
PDLIM4,3,-0.472,-0.35,4.58
TERF2IP,1,-0.173,1.75,4.47
TERF2IP,3,-0.587,-1.16,3.81
STRIP2,2,-0.628,-1.45,3.77
SLF1,2,-0.372,0.35,3.56
SLF1,3,-0.0318,2.74,3.24
STRIP2,1,-0.856,-3.06,3.14
ADAMTSL2,2,-1.34,-6.44,3.12
STRIP2,3,-0.495,-0.513,2.87
PDLIM4,2,-1.62,-8.41,2.31
SLF1,1,-1.2,-5.45,2.29
ADAMTSL2,1,-1.13,-4.97,1.87

Continued.
target,reagent no.,G2 robust z-score,"G2 cells, % of GMNN control",raw share of cells in G2 (%)
PDXDC2P-NPIPB14P,1,-0.081,2.4,4
PDXDC2P-NPIPB14P,2,0.865,9.05,6.94
PDXDC2P-NPIPB14P,3,1.79,15.6,9.07
DNAJC16,1,-0.652,-1.62,2.99
DNAJC16,2,0.565,6.95,9.08
DNAJC16,3,-0.31,0.788,3.67
B4GALT3,1,1.77,15.4,11.5
B4GALT3,2,0.656,7.58,7.42
B4GALT3,3,2.11,17.8,11.5
MEOX1,1,0.455,6.17,7.92
MEOX1,2,-0.00918,2.9,6.48
MEOX1,3,-0.824,-2.83,2.26
CCDC127,1,-0.434,-0.0865,4.14
CCDC127,2,2.37,19.7,9.34
CCDC127,3,0.783,8.48,5.65
PXDNL,1,-0.954,-3.74,4.17
PXDNL,2,-0.607,-1.31,4.22
PXDNL,3,-0.788,-2.58,3.62
CCL27,1,5.6 (active),42.4,24.1
CCL27,2,-0.379,0.301,6.6
CCL27,3,2.02,17.2,9.4
TIGD1,1,-1.02,-4.21,2.93
TIGD1,2,0.123,3.83,7.78
TIGD1,3,3.34,26.5,14.4
CPVL,1,-0.0585,2.56,6.45
CPVL,2,3.15,25.1,13.8
CPVL,3,0.429,5.99,6.14
SCN1A,1,-0.455,-0.232,5.2
SCN1A,2,0.675,7.71,7.39
SCN1A,3,1.8,15.6,10.5
HSF4,1,0.209,4.44,7.37
HSF4,2,0.794,8.56,7.34
HSF4,3,-0.697,-1.94,4.34
MAX,1,-1.5,-7.57,0.699
MAX,2,-1.24,-5.77,3.13
MAX,3,0.581,7.06,8.27
NXF5,1,0.73,8.1,9.98
NXF5,2,0.546,6.81,6.88
NXF5,3,-0.908,-3.42,2.91
ELOB,1,-0.706,-2,2.4
ELOB,2,-0.578,-1.1,2.79
ELOB,3,0.162,4.11,4.97
CNOT4,1,-0.633,-1.48,4.79
CNOT4,2,-0.213,1.47,6.05
CNOT4,3,-0.854,-3.04,2.19
PNMA1,1,-0.524,-0.719,3.29
PNMA1,2,-0.743,-2.26,4.98
PNMA1,3,-0.0854,2.37,4.33
